# Measurements: PubChem BioAssay AID485314 (National Center for Advancing Translational Sciences (NCATS), 2010)
# Screen size: about 340,000 compounds; about 4,500 (1.3%) were called active. Inconclusive means that the source gave no clear call. Such entries were picked first, then a sample of the others. Calls come from the whole dose curve; as a rule, active = well fitted inhibition curve with a large enough effect; inconclusive = small, poorly fitted or top-dose-only effect, or another doubt; inactive = no such curve, though single readings can be large or run the other way. Potencies of inconclusive entries are doubtful fits and often do not repeat.
# Target: DNA polymerase beta (Homo sapiens) (UniProt P06746)
# Test: qHTS Assay for Inhibitors of DNA Polymerase Beta
# Details: Pol beta primer extension/strand displacement, fluorescence kinetic; activity change, negative = inhibition: at 114 µM (top of the series)
# Method in brief: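 Human Pol beta at 10 nM; strand-displacement substrate 50 nM final. Compound exposure 15 min at room temperature before start, reaction 10 min at room temperature.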
# % is set by controls: 0 for no effect and ±100 for the full control effect; potency is the fitted concentration of half-maximal effect.
SMILES,Potency,"activity change, negative = inhibition"
COc1ccccc1CNC(=O)Cc1c(C)c2cc3c(C)coc3c(C)c2oc1=O,"inconclusive: 22.4 µM [inhibitor, full curve]",–
Cc1ccc(C(=O)OCC(=O)Nc2ncc(C(F)(F)F)cc2Cl)cc1NC(=O)c1ccco1,"inconclusive: 0.141 µM [inhibitor, full curve, poor fit]",–
O=C(NCc1ccc2c(c1)OCO2)c1cccnc1Cl,"inconclusive: 89.1 µM [inhibitor, single point]",–
CCOC(=O)c1ccc(Nc2c(-c3ccc(OC)cc3)nc3nc[nH]n23)cc1,"inconclusive: 39.8 µM [inhibitor, single point]",–
COC(=O)c1ccccc1NC(=O)C1CC=CCC1C(=O)O (stereo unspecified),"inconclusive: 35.5 µM [inhibitor, partial curve]",–
Cc1ccc(NC(=O)c2ccc3c(O)c(S(=O)(=O)c4ccc(Cl)cc4)c(=O)[nH]c3c2)cc1,"inconclusive: 89.1 µM [inhibitor, single point]",–
O=C(O)CCC(=O)Nc1cccc2cccnc12,"inconclusive: 0.355 µM [inhibitor, full curve, poor fit]",–
O=C(N=Nc1c(O)[nH]c2ccccc12)c1cccc(S(=O)(=O)Nc2ccccc2Cl)c1,inactive,–
COC(=O)Cc1[nH]n(-c2nc3ccccc3s2)c(=O)c1C(C)=Nc1ccc(C)cc1,"inconclusive: 15.8 µM [inhibitor, partial curve]",–
O=C1NN(c2ccccc2)C(=O)/C1=C/c1ccc(-c2ccc(Cl)c(C(=O)O)c2)o1,active: 12.6 µM,–
Cc1oc(-c2ccccc2F)nc1CS(=O)CC(=O)NC1CCCC1 (stereo unspecified),–,inconclusive: -32.7% [inhibitor]
COc1ccc(CNC(=O)CS(=O)Cc2nc(-c3ccc(C)cc3)oc2C)cc1 (stereo unspecified),"inconclusive: 89.1 µM [inhibitor, single point]",–
CC1(C(=O)NNC(=O)c2ccc(=O)oc2)CC1Br (stereo unspecified),"inconclusive: 44.7 µM [inhibitor, partial curve]",–
C/C(=N\Nc1ccc(Cl)c(C(=O)O)c1)c1ccc(N2CCOCC2)cc1,inactive,–
Cc1ccc(-c2c(C(=O)Nc3ccccc3C)c(C)[nH]c(=S)c2C#N)o1,"inconclusive: 50.1 µM [inhibitor, partial curve]",–
COc1ccccc1CNC(=O)c1ccc2[nH]c(C)c(C)c2c1,"inconclusive: 89.1 µM [inhibitor, single point]",–
Cc1nnc(Sc2nc3c(c(=O)[nH]c(=O)n3C)n2Cc2ccccc2)s1,"inconclusive: 79.4 µM [inhibitor, single point]",–
COc1ccc(OCC(O)CN2CCCCCC2)cc1 (stereo unspecified),"inconclusive: 22.4 µM [inhibitor, single point]",–
Cc1ccc2c(CC(=O)OCn3nnc4ccccc4c3=O)coc2c1,"inconclusive: 44.7 µM [inhibitor, partial curve]",–
O=C1CS/C(=N/N=C/c2cccs2)N1Cc1ccc(F)cc1,inactive,–
O=C(/C=C/c1c(F)cccc1Cl)N1CCOCC1,active: 31.6 µM,–
COc1ccc(NC(=O)C2=C(C)NC(=O)NC2c2ccccc2[N+](=O)[O-])cc1 (stereo unspecified),"inconclusive: 63.1 µM [inhibitor, single point]",–

# Another view of 15 compounds above:
SMILES | Potency | activity change, negative = inhibition
CCOC(=O)c1ccc(Nc2c(-c3ccc(OC)cc3)nc3nc[nH]n23)cc1 | inconclusive: 39.8 µM [inhibitor, single point] | –
COC(=O)c1ccccc1NC(=O)C1CC=CCC1C(=O)O (stereo unspecified) | inconclusive: 35.5 µM [inhibitor, partial curve] | –
Cc1ccc(NC(=O)c2ccc3c(O)c(S(=O)(=O)c4ccc(Cl)cc4)c(=O)[nH]c3c2)cc1 | inconclusive: 89.1 µM [inhibitor, single point] | –
O=C(O)CCC(=O)Nc1cccc2cccnc12 | inconclusive: 0.355 µM [inhibitor, full curve, poor fit] | –
O=C(N=Nc1c(O)[nH]c2ccccc12)c1cccc(S(=O)(=O)Nc2ccccc2Cl)c1 | inactive | –
COC(=O)Cc1[nH]n(-c2nc3ccccc3s2)c(=O)c1C(C)=Nc1ccc(C)cc1 | inconclusive: 15.8 µM [inhibitor, partial curve] | –
O=C1NN(c2ccccc2)C(=O)/C1=C/c1ccc(-c2ccc(Cl)c(C(=O)O)c2)o1 | active: 12.6 µM | –
Cc1oc(-c2ccccc2F)nc1CS(=O)CC(=O)NC1CCCC1 (stereo unspecified) | – | inconclusive: -32.7% [inhibitor]
COc1ccc(CNC(=O)CS(=O)Cc2nc(-c3ccc(C)cc3)oc2C)cc1 (stereo unspecified) | inconclusive: 89.1 µM [inhibitor, single point] | –
CC1(C(=O)NNC(=O)c2ccc(=O)oc2)CC1Br (stereo unspecified) | inconclusive: 44.7 µM [inhibitor, partial curve] | –
C/C(=N\Nc1ccc(Cl)c(C(=O)O)c1)c1ccc(N2CCOCC2)cc1 | inactive | –
Cc1ccc(-c2c(C(=O)Nc3ccccc3C)c(C)[nH]c(=S)c2C#N)o1 | inconclusive: 50.1 µM [inhibitor, partial curve] | –
COc1ccccc1CNC(=O)c1ccc2[nH]c(C)c(C)c2c1 | inconclusive: 89.1 µM [inhibitor, single point] | –
Cc1nnc(Sc2nc3c(c(=O)[nH]c(=O)n3C)n2Cc2ccccc2)s1 | inconclusive: 79.4 µM [inhibitor, single point] | –
COc1ccc(OCC(O)CN2CCCCCC2)cc1 (stereo unspecified) | inconclusive: 22.4 µM [inhibitor, single point] | –

# (list continues)

SMILES,Potency,"activity change, negative = inhibition"
Cc1ccc(-c2cn3cccnc3n2)cc1NC(=O)Nc1ccc(F)cc1,inactive,–
NC(=O)[C@@H]1CCCN1Cc1nc(-c2ccccc2)no1,"inconclusive: 3.55 µM [inhibitor, full curve, poor fit]",–
Cc1ccc(S(=O)(=O)NNC(=S)NCC2CCCO2)cc1 (stereo unspecified),"inconclusive: 79.4 µM [inhibitor, single point]",–
CCC(CO)NC(=O)c1cc2c(s1)CCC2 (stereo unspecified),"inconclusive: 89.1 µM [inhibitor, single point]",–
O=S(=O)(c1ccc(F)cc1)N(CCO)CC(O)Cn1c2ccccc2c2ccccc21 (stereo unspecified),"inconclusive: 89.1 µM [inhibitor, single point]",–
O=c1[nH]n2c(-c3ccccc3)nc(O)c2c2ccccc12,inactive,–
CCOC(=O)C1=C(CS(=O)(=O)c2ccc(F)c(C)c2)NC(=O)NC1c1ccc(O)c(O)c1 (stereo unspecified),"inconclusive: 63.1 µM [inhibitor, partial curve, poor fit]",–
CCc1nnc(NC(=O)CSc2ccc(-c3nc4ccccc4[nH]3)cn2)s1,active: 35.5 µM,–
COc1ccc(/C=C2/SC(=S)N(NS(=O)(=O)c3ccc(C)cc3)C2=O)cc1,"inconclusive: 89.1 µM [inhibitor, single point]",–
CCCOc1cccc(C(=O)N(Cc2sccc2C)C2CCS(=O)(=O)C2)c1 (stereo unspecified),"inconclusive: 12.6 µM [inhibitor, partial curve]",–
CC(c1ccco1)N(C(=O)COc1ccc(Cl)cc1Cl)c1ccccn1 (stereo unspecified),"inconclusive: 89.1 µM [inhibitor, single point]",–
COc1ccc(C(=O)O/N=C(\N)c2ccc(Br)cc2)cc1,inactive,–
CCOc1ccc(Cn2nnc(C(=O)NCc3ccc(OC)cc3)c2N)cc1,"inconclusive: 15.8 µM [inhibitor, partial curve]",–
Cc1cc(-c2nnc(SCC(=O)Nc3cccc(Cl)c3)n2N)n[nH]1,"inconclusive: 2.82 µM [inhibitor, single point]",–
CCNC(=S)N1CCN(S(=O)(=O)c2ccc(C)cc2)CC1,"inconclusive: 50.1 µM [inhibitor, partial curve, poor fit]",–
CCOc1ccc(/C=N/N2C(C)CCCC2C)cc1 (stereo unspecified),inactive,–
COCc1cc(C)nc2c1C(=O)NC(c1ccc(C)cc1)N2Cc1ccccc1 (stereo unspecified),"inconclusive: 0.708 µM [inhibitor, full curve]",–
COc1cc(NC(=O)CN(C)S(=O)(=O)c2ccc(-c3ccc(=O)[nH]n3)s2)cc(OC)c1,"inconclusive: 39.8 µM [inhibitor, partial curve]",–
Cc1ccccc1Nc1nn2c(=O)c3ccc(C(=O)NCc4ccccc4)cc3nc2s1,active: 12.6 µM,–
CCN(CC)c1ccc(C2N(C(=O)N3CCOCC3)CCN2S(=O)(=O)c2ccc(C)cc2)cc1 (stereo unspecified),"inconclusive: 89.1 µM [inhibitor, single point]",–
COc1cn(-c2ccccc2)nc1C(=O)Nc1ccc(C)cc1Cl,"inconclusive: 15.8 µM [inhibitor, full curve]",–
COc1ccc(S(=O)(=O)N2CCC(NC(=O)C(Cc3cccc(OC)c3OC)NC(C)=O)CC2)cc1 (stereo unspecified),"inconclusive: 25.1 µM [inhibitor, single point]",–

SMILES,Potency,"activity change, negative = inhibition"
Cc1cccc(NC(=O)CN2C(=O)N/C(=C/c3ccc(-c4cccc(C(=O)O)c4C)o3)C2=O)c1,"inconclusive: 39.8 µM [inhibitor, partial curve]",–
CCOC(=O)N1CCN(C(=O)C2CCN(c3ncnc4c3sc3cccc(F)c34)CC2)CC1,"inconclusive: 0.112 µM [inhibitor, full curve, poor fit]",–
O=[N+]([O-])c1ccc(N2CCOCC2)cn1,"inconclusive: 1.12 µM [inhibitor, full curve, poor fit]",–
Nc1nc2c(s1)CCc1c-2cnn1-c1ccccc1,"inconclusive: 56.2 µM [inhibitor, single point]",–
CCOc1cc(C(=O)OCC(=O)c2cc(C)n(CC3CCCO3)c2C)ccc1OCC(=O)N1CCOCC1 (stereo unspecified),"inconclusive: 39.8 µM [inhibitor, partial curve, poor fit]",–
c1csc(-c2nn3c(Cn4cnc5ccccc54)nnc3s2)c1,"inconclusive: 6.31 µM [inhibitor, single point]",–
CCOC(=O)c1cccc(NC(=O)C2CCCN2S(=O)(=O)c2cccc3cccnc23)c1 (stereo unspecified),"inconclusive: 0.316 µM [inhibitor, full curve, poor fit]",–
COc1cc2nc(NC(=O)c3ccccc3)[nH]c(=O)c2cc1OC,"inconclusive: 39.8 µM [inhibitor, single point]",–
COc1ccc(CCNC(=O)c2cc3n(n2)CCCN(Cc2ccc(C)cc2)C3=O)cc1OC,inactive,–
Cc1scc(C(=O)NNC(=S)NC(C)c2ccccc2)c1C (stereo unspecified),inactive,–
CC(=O)C1=C(c2ccccc2)N(C(C)=O)n2c(nnc2C2CCCCC2)S1,inactive,–
CCOc1cc(/C=C2\C(=O)N(c3cccc(C(=O)O)c3)N=C2C(F)(F)F)ccc1OCC(=O)Nc1ccccc1OC,active: 20 µM,–
CS(=O)(=O)C1=NN2C(=N)/C(=C\c3ccc(OC(=O)c4ccco4)cc3)C(=O)N=C2S1,–,inconclusive: -40.8% [inhibitor]
C/C(=N\NC(=O)c1ccc(NS(=O)(=O)c2cccs2)cc1)c1ccc(Cl)cc1,inactive,–
O=C(NCc1ccccc1F)c1sc2ncccc2c1-n1cccc1,inactive,–
CCOC(=O)C1CCCN(S(=O)(=O)c2c(C)noc2C)C1 (stereo unspecified),"inconclusive: 0.501 µM [inhibitor, full curve, poor fit]",–
CCn1cc2nc(SCC(=O)Nc3ccc(C)cc3)n(Cc3ccc(C)cc3)c(=O)c2n1,"inconclusive: 39.8 µM [inhibitor, single point]",–
CC(=O)C1C(c2ccc([N+](=O)[O-])cc2)C2C(C)=NN=C2CC1(C)O (stereo unspecified),"inconclusive: 0.141 µM [inhibitor, full curve, poor fit]",–
O=S(=O)(NCCS(=O)(=O)N1CCN(c2cccc(Cl)c2)CC1)c1ccc(F)cc1,inactive,–
CCc1c(C(C)O)oc2ccc3c(C)cc(=O)oc3c12 (stereo unspecified),"inconclusive: 0.1 µM [inhibitor, full curve, poor fit]",–
Cc1ccccc1N1CC(=O)N(c2ccccc2C)CC1=O,inactive,–
OCCNc1nc(Nc2ccccc2)nc2ccccc12,"inconclusive: 4.47 µM [inhibitor, full curve, poor fit]",–
